According to patent US8377913B2, “Vitamin D receptor activators and methods of making” (AbbVie Inc., priority 2007, dated 2013):
At least one compound was matched to its structure with a doubt left.

System: 5/6 NX uremic rats
Experiment: Study 2: left ventricular hypertrophy (LVH) in 5/6 NX uremic rats
Format: in vivo, rat
Conditions: 1, 10 and 100 μg/kg, 3×/wk for 6 wks
Experimental: Study 2: To determine if treatment with Example 1 (1, 10 & 100 μg/kg) reduces left ventricular hypertrophy (LVH) in 5/6 NX uremic rats.
Methods: Previous studies have shown that the 5/6 NX rat is hypertensive and presents with left ventricular hypertrophy. Therefore, 5/6 NX rats were received from Charles River at 2 weeks uremia and fed TD04151 (0.6% Ca and 0.9 % P) 4 weeks prior to study. 5/6 NX rats were treated with Example 1 (1, 10 & 100 μg/kg) or vehicle (95% PG/5% EtOH) 3×/week for six weeks. On Days 0, 13 and 41 blood was drawn (24 hours post-dose). At the end of the six week treatment period, rats were anesthetized with isoflurane and echocardiography was performed. Left ventricular mass was determined according to the American Society of Echocardiography recommendations using the cube method. After euthanasia, direct measurements of left ventricular weight were obtained. Note: Vehicle treated SHAM and 5/6 NX rats (3×/week for six weeks) from previous studies were included in this study for comparison purposes. All values are mean±SEM. Data was analyzed using ANOVA and where noted t-test. * Indicates p<0.05 compared to SHAM.

C=C1[C@H](O)CC(=C/C=C2\CCC[C@]3(C)[C@@H]([C@H](C)COC(=O)C(C)(C)C)CC[C@@H]23)C[C@H]1O [Example 1, (2S)-2-[(1R,3R,7E, 17β)-1,3-dihydroxy-2-methylene-9,10-secoestra-5,7-dien-17-yl]propyl pivalate]
cardiac performance between the groups: no differences
left ventricular mass compared to vehicle treated 5/6 NX rats: no detectable differences
